Results are given in words; binding and its absence hold for the method and conditions named. Tags and fused reporters may be left off the sequences shown.

The target in this assay is T1, MbnF from Methylocystis sp. strain SB2, C-terminally His6-tagged (Methylocystis sp. strain SB2).
T1 sequence: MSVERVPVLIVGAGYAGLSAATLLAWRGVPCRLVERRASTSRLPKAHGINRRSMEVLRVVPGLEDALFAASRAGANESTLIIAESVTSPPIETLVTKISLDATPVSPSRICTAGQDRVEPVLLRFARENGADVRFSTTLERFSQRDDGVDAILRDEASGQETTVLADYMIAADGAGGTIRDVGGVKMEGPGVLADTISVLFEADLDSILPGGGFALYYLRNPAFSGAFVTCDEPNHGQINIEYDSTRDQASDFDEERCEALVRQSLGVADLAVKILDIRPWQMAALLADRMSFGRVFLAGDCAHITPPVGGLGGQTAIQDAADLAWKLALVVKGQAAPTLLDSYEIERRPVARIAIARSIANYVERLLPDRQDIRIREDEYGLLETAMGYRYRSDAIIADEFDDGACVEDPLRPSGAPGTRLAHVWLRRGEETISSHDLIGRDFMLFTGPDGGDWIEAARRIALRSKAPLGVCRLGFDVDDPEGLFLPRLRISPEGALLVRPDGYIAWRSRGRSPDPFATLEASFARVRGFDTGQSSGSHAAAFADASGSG
Description: condition: only acidic conditions (C4 column, 0.1% formic acid gradient); ESI-MS after a C4 column under acidic conditions; Restek Ultra C4 column, water + 0.1% formic acid/acetonitrile + 0.1% formic acid gradient; mixture of 1 mg/ml MbnA, 500 µM MbnF, 250 mM NaCl, 50 mM HEPES pH 7.4; both purified.

B1: MbnA peptide (methanobactin MB-SB2 precursor peptide) (peptide)
peptide: IRIAKRITLNVIGRASARCASTCAATNG
notes: MbnA, precursor peptide of methanobactin MB-SB2, Methylocystis sp. strain SB2; the natural precursor may have further residues at its N-terminus; also called MB-SB2 peptide precursor; source: synthetic peptide, bought: AnaSpec (~90% pure)
For the molecule B1, the binding result is given as “no binding”.

(Values after paper PMC10167746, “Crystal structure of MbnF: an NADPH-dependent flavin monooxygenase from Methylocystis strain SB2” (Acta Crystallographica. Section F, Structural Biology …, 2023).)
